PubChem BioAssay AID602196 – INSERM – 2012
Here is an unselected part of about 23,000 deposited reagents. 455 of all reagents (2%) were called active. 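Active includes both protection and sensitisation; some change values fall well beyond the stated -50 to +50 range.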 Not all columns of the deposit are shown. Not given: the amount of reagent.

Assay: 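Genes whose knock-down alters cisplatin killing of lung cancer cells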
Cells: human A549 lung cancer cells
Reagent: siRNA pair against human genes
Duration: 48 h transfection before cisplatin; time from cisplatin to read-out not stated
Treatment: cisplatin at a dose killing half of control-siRNA cells; exact dose and duration not given
Detection: 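Cisplatin cell death as a shift from the 50% death seen with control siRNA; siRNAs toxic or growth-blocking alone scored 0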
Reading the numbers: two-siRNA summed score (-2 to +2): higher = both siRNAs protect from cisplatin killing; -2 means both sensitise
Active means: 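Each siRNA scores 0 if harmful alone by LDH or WST-1, otherwise +1 if it reduces and -1 if it increases cisplatin killing; a gene is active when both siRNAs agree (sum +2 or -2)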
Calls: active = both siRNAs shift cisplatin killing the same way; inactive = no consistent shift, or siRNA harmful alone

{"Gene": "MLX", "two-siRNA summed score (-2 to +2)": 0, "activity call": "inactive"}
{"Gene": "OR51I2", "two-siRNA summed score (-2 to +2)": 1, "activity call": "inactive"}
{"Gene": "COL4A6", "two-siRNA summed score (-2 to +2)": 1, "activity call": "inactive"}
{"Gene": "PSMC2", "two-siRNA summed score (-2 to +2)": 0, "activity call": "inactive"}
{"Gene": "LOC391045", "two-siRNA summed score (-2 to +2)": 0, "activity call": "inactive"}
{"Gene": "TIGD5", "two-siRNA summed score (-2 to +2)": 0, "activity call": "inactive"}
{"Gene": "LOC344709", "two-siRNA summed score (-2 to +2)": 1, "activity call": "inactive"}
{"Gene": "AHR", "two-siRNA summed score (-2 to +2)": 0, "activity call": "inactive"}
{"Gene": "APP", "two-siRNA summed score (-2 to +2)": -1, "activity call": "inactive"}
{"Gene": "TXNDC2", "two-siRNA summed score (-2 to +2)": 0, "activity call": "inactive"}
{"Gene": "MRPS27", "two-siRNA summed score (-2 to +2)": 1, "activity call": "inactive"}
{"Gene": "LOC440080", "two-siRNA summed score (-2 to +2)": 0, "activity call": "inactive"}
